The text below walks through data of paper PMC7903899.

The chains behind the UniProt entries cited, without tags or fusion partners.
UniProt Q94AN4: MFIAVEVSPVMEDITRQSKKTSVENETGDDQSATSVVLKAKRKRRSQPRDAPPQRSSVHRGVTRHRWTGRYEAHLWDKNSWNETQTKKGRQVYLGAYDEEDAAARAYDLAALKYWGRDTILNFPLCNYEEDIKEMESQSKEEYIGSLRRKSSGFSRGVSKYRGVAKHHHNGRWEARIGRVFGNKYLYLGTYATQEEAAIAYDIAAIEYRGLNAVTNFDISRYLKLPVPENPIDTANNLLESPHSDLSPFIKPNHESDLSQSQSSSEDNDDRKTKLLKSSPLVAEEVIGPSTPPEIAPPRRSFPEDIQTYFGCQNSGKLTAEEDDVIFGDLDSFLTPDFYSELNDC

Assay [1] has as its target T1, Armadillo BTB Arabidopsis protein 1 (ABAP1), GST fusion (Arabidopsis thaliana) (UniProt B7U179).
T1 sequence: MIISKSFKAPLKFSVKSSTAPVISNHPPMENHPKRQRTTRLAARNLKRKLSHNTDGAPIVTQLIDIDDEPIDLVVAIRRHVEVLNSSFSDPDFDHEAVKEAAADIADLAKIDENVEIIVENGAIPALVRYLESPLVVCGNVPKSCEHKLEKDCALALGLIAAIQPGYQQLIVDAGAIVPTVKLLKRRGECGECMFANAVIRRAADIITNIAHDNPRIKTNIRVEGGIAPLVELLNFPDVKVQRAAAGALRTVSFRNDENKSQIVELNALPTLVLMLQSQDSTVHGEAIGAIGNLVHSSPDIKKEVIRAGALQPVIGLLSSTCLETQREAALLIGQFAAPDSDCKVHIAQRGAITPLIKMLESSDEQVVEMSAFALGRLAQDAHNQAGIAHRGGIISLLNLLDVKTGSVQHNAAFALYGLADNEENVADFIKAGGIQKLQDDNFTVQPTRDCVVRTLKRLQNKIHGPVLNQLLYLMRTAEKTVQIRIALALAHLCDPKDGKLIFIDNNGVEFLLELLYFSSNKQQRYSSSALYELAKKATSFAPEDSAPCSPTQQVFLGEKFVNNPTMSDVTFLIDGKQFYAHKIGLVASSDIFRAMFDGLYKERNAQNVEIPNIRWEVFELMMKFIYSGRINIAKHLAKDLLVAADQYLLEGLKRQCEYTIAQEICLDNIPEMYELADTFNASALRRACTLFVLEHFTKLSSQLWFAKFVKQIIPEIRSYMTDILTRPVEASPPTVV
Put plainly: pull-down; GST pull-down; ABAP1-GST or GST alone as bait, HIS-tagged protein as prey, both produced in E. coli; Western blot with anti-HIS antibody.

Assay [2] deals with T2, Armadillo BTB Arabidopsis protein 1 (ABAP1), yeast two-hybrid fusion (Arabidopsis thaliana) (UniProt B7U179).
T2 sequence: T1 sequence
Nature of the assay: two-hybrid; yeast; pairs cloned in both AD and DBD vectors; growth on SD medium lacking leucine, tryptophan, histidine and adenine (selection of strong interactions); empty vectors as negative controls.

These are yes or no findings as the source states them, for the method shown. For some assays here: Binding seen in cells or lysates may run through a third protein. Some binding calls cover weakened binding; strength is not graded here. Sequences can lack the tags named with a protein.

“ARIA-interacting double AP2-domain protein (ADAP) / WRINKLED3 (WRI3), HIS fusion (from UniProt Q94AN4 1-345)”: in assay [1], the binding entry was “binds”.

On to “ARIA-interacting double AP2-domain protein (ADAP) / WRINKLED3 (WRI3), yeast two-hybrid fusion (from UniProt Q94AN4 1-345)”, for which, in assay [2], the binding result was “binds”.
